Data source: PubChem BioAssay AID652243 (Drosophila RNAi Screening Center, 2013)

Screen: 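Fly genes required for human androgen receptor driven transcription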 (primary screen)
System: Drosophila S2R+ cells
Reagent: long dsRNA against Drosophila genes
Time to read-out: 72 h (48 h, then 24 h hormone)
Challenge: synthetic androgen R1881 at 10 nM for 24 h
Read-out: 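Firefly light from an androgen-responsive reporter and Renilla control light per well, raw and unnormalised, for each of two replicates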
Direction: firefly reporter light: higher = more light from androgen-responsive reporter; Renilla control light: higher = more constitutive control signal (cell number, transfection)
Rule for the call: 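Across duplicate plates, a knock-down whose log firefly/Renilla ratio shifted a set fold down or up from the GFP/LacZ control mean was a hit; the downward cut appears as both 1.5 and 3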
Meaning of the calls: active = hit: reporter lowered or raised; inactive = no hit
The deposit covers about 24,000 reagents; shown is a random part of those that have a named target and a result. In the full data, 246 (1%) were called active. 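Plates not normalised; calls are printed but the firefly/Renilla ratio behind them is not deposited; fold cut for lowering reported inconsistently.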 Raw values are not corrected between plates. A plus sign joins genes that one reagent is predicted to hit. No sequences are given here. Not given: the amount of reagent.

Target gene | DRSC id | firefly reporter light, replicate 1 | firefly reporter light, replicate 2 | Renilla control light, replicate 1 | Renilla control light, replicate 2 | Outcome
CG31195 | DRSC13440 | 96107 | 85207 | 1.63e5 | 2.11e5 | inactive
CG6153 | DRSC02935 | 1.05e6 | 1.09e6 | 2.00e6 | 2.83e6 | inactive
Cyp6a23 | DRSC07383 | 63283 | 1.38e5 | 2.04e6 | 2.04e6 | inactive
Cyp6a23 | DRSC29473 | 4.51e5 | 5.15e5 | 9.49e5 | 9.49e5 | inactive
CG43896 | DRSC10288 | 1.59e5 | 1.95e5 | 1.75e6 | 1.65e6 | inactive
CG43896 | DRSC10754 | 2.60e5 | 1.61e5 | 1.79e6 | 1.41e6 | inactive
CG43896 | DRSC26965 | 3.51e5 | 2.59e5 | 8.55e5 | 5.54e5 | inactive
Nep4 | DRSC15539 | 55407 | 67876 | 7.74e5 | 8.09e5 | inactive
Phax | DRSC07066 | 3.92e5 | 3.04e5 | 2.38e6 | 2.19e6 | inactive
CG17683 | DRSC21160 | 1.85e5 | 1.89e5 | 6.62e5 | 6.52e5 | inactive
CG17683 | DRSC27534 | 2.68e5 | 3.43e5 | 4.94e5 | 8.26e5 | inactive
BORCS6 | DRSC08514 | 1.24e5 | 1.52e5 | 1.57e6 | 1.74e6 | inactive
BORCS6 | DRSC25735 | 9.26e5 | 7.09e5 | 9.53e5 | 8.24e5 | inactive
Npc2h | DRSC14297 | 2.43e5 | 2.52e5 | 2.32e6 | 3.24e6 | inactive
lncRNA:CR32657 | DRSC19403 | 4.40e5 | 4.69e5 | 3.86e6 | 4.45e6 | inactive
lncRNA:CR32657 | DRSC25753 | 6.66e5 | 4.12e5 | 6.98e5 | 6.11e5 | inactive
CG15109 | DRSC06536 | 1.05e5 | 1.50e5 | 1.54e6 | 1.82e6 | inactive
CG15109 | DRSC26040 | 2.97e5 | 2.58e5 | 8.32e5 | 6.48e5 | inactive
CG11911 | DRSC00331 | 7.51e5 | 1.00e6 | 1.85e6 | 1.38e6 | inactive
CG11911 | DRSC27293 | 3.90e5 | 4.19e5 | 3.07e5 | 4.15e5 | inactive
PAPLA1 | DRSC03095 | 3.77e5 | 5.74e5 | 1.39e6 | 1.91e6 | inactive
PAPLA1 | DRSC03096 | 1.79e5 | 2.28e5 | 1.54e6 | 1.50e6 | inactive
Nepl4 | DRSC03239 | 7.54e5 | 7.84e5 | 1.32e6 | 1.95e6 | inactive
wupA | DRSC20385 | 5.18e5 | 6.41e5 | 2.89e6 | 3.78e6 | inactive
wupA | DRSC22547 | 5.80e5 | 7.58e5 | 9.14e5 | 1.42e6 | inactive
wupA | DRSC29330 | 4.72e5 | 5.72e5 | 1.78e6 | 1.78e6 | inactive
tilB | DRSC20634 | 1.82e5 | 1.80e5 | 5.89e5 | 4.32e5 | inactive
CG5103 | DRSC10481 | 2.18e5 | 2.05e5 | 2.16e6 | 2.08e6 | inactive
Gem4b + Gem4c + Glos | DRSC18244 | 2.89e5 | 2.72e5 | 3.50e6 | 3.44e6 | inactive
CG15254 | DRSC01870 | 3.93e5 | 3.96e5 | 3.42e6 | 2.65e6 | inactive
CG15254 | DRSC21765 | 2.79e5 | 2.80e5 | 1.75e6 | 2.07e6 | inactive
CG15254 | DRSC29568 | 1.99e5 | 2.15e5 | 8.89e5 | 8.89e5 | active
Gcna | DRSC18553 | 99546 | 67567 | 8.99e5 | 7.81e5 | inactive
cac | DRSC19743 | 6.71e5 | 7.48e5 | 4.20e6 | 4.47e6 | inactive
cac | DRSC20354 | 80883 | 1.01e5 | 6.74e5 | 6.27e5 | inactive
cac | DRSC39146 | 1.03e6 | 1.27e6 | 1.39e6 | 1.65e6 | inactive
mIF2 + CR40068 | DRSC37872 | 9.16e5 | 9.58e5 | 1.39e6 | 1.32e6 | inactive
CG5139 | DRSC00681 | 1.12e5 | 1.60e5 | 1.10e6 | 1.70e6 | inactive
CG5139 | DRSC26541 | 2.22e5 | 2.47e5 | 5.18e5 | 6.61e5 | inactive
CG14839 | DRSC14963 | 7.55e5 | 5.98e5 | 2.39e6 | 1.37e6 | inactive
CG14839 | DRSC27307 | 2.62e5 | 2.92e5 | 3.58e5 | 5.69e5 | inactive
Art1 | DRSC16063 | 78663 | 82699 | 3.16e5 | 4.11e5 | inactive
PPP1R15 | DRSC04422 | 2.34e5 | 1.10e5 | 2.50e5 | 1.38e5 | inactive
PPP1R15 | DRSC26013 | 42291 | 52465 | 98417 | 81650 | inactive
Hmgcr | DRSC16704 | 1.09e5 | 1.37e5 | 1.70e6 | 1.74e6 | inactive
Hmgcr | DRSC39105 | 3.92e5 | 3.98e5 | 1.18e6 | 1.40e6 | inactive
isoQC | DRSC11790 | 2.16e5 | 1.43e5 | 1.05e6 | 1.35e6 | inactive
isoQC | DRSC28241 | 4.68e5 | 3.90e5 | 7.34e5 | 1.11e6 | inactive
CG40378 (retired record) | DRSC22174 | 6.85e5 | 5.42e5 | 2.31e6 | 2.10e6 | inactive
CG13039 | DRSC09920 | 2.86e5 | 2.98e5 | 2.82e6 | 2.79e6 | inactive
Pdp | DRSC17825 | 79733 | 63487 | 5.30e5 | 3.50e5 | inactive
Pdp | DRSC26725 | 3.18e5 | 3.22e5 | 5.89e5 | 5.26e5 | inactive
Elba1 | DRSC00276 | 1.28e5 | 1.42e5 | 6.46e5 | 6.50e5 | inactive
Elba1 | DRSC24062 | 7.32e5 | 6.05e5 | 7.75e5 | 7.87e5 | inactive
CG6709 + Hez | DRSC10165 | 3.05e5 | 2.78e5 | 3.75e6 | 2.75e6 | inactive
CG6709 + Hez | DRSC10698 | 3.95e5 | 4.09e5 | 4.50e6 | 3.40e6 | inactive
CG14965 | DRSC08424 | 9.63e5 | 7.75e5 | 1.03e6 | 8.63e5 | inactive
Ak1 | DRSC10248 | 2.52e5 | 2.01e5 | 2.62e6 | 2.25e6 | inactive
Ak1 | DRSC29837 | 5.23e5 | 3.74e5 | 9.87e5 | 1.19e6 | inactive
